Measurements reported in patent publication US10947207B2, “GP130 modulators” (THE REGENTS OF THE UNIVERSITY OF CALIFORNIA, priority 2016, dated 2021).
Some of these results come from one statement about several compounds together.

Tested on: NMDA-treated primary hippocampal neurons
Assay: NMDA-triggered LDH release in primary hippocampal neuron culture
Settings: 10 μM, 16 h pretreatment, NMDA 100 μM, 2.5 h, compared with NMDA alone
Excerpt: In this study, the cytotoxicity of NMDA was quantified by measuring the activity of lactate dehydrogenase (LDH) released from the cultured neurons into the medium and confirmed by living cell density analysis using calcein staining. […] MK-801, a noncompetitive antagonist of NMDA receptor, was used as a control [Wong et al., 1986, Proc. Natl. Acad. Sci. U.S.A., 83(18):7104].
In the present study, primary cultures of hippocampal neurons from E15-16 mouse embryos (C57BL/6) were used. The culture was made according to a previously described protocol with minor modifications [Bilousova et al. 2006, J. Neurochem. 97(1):44]. Hippocampi were isolated in ice-cold D-Hanks buffer containing (in mM: NaCl 136.7, KCl 5.4, NaHCO3 4.2, KH2PO4 0.4, NaH2PO4 0.6, glucose 5.6, and pH 7.4). In order to achieve a single cell suspension, hippocampal tissues were treated with papain (0.5 μg/mL) and Dnase (0.6 μg/mL) for 20 min at 37° C., followed by mechanical dissociation in complete media (Neurobasal medium supplemented with B27 (Invitrogen), 25 μM glutamate, and 1% penicillin-streptomycin). The cells were plated on poly-DL-ornithine (0.5 mg/mL), and laminin (5 μg/mL) pre-coated 96-well plates (Costar) at density 1×10^5 cells/mL and maintained in a humidified 5% CO2 incubator at 37° C. The proliferations of non-neuronal cells were limited by 48 h treatment with cytosine arabinoside (10 μM) started on first day in vitro (DIV1). All experiments were performed at 9 DIV cells.
Hippocampal neurons isolated from embryos were cultured for 8 days before treatment with chemical modulators (compounds). […] Briefly, the cells were washed three times with prewarmed Locke's buffer containing (in mM: NaCl 154, KCl 5.6, NaHCO3 3.6, CaCl2 2.3, MgCl2 1.2, glucose 5.6, HEPES 5, and pH 7.4) to remove traces of growth medium. […] The incubation was terminated by removal of compound-containing buffer, followed by washing with prewarmed drug-free Locke's buffer containing 1 mM Mg^2+.
Assessment of cell damage was done by measuring the LDH activity in the culture medium. The experiment was performed per the manufacturer's protocol (Promega). Release LDH levels were expressed as a percentage compared with that of the DMSO control group (100%).

Row | SMILES | effect on NMDA-triggered LDH release (in words) | further results
1 | Brc1ccc(Nc2nc(-c3ccccc3)cs2)cc1 [Compound 1, N-(4-bromophenyl)-4-phenylthiazol-2-amine] | significantly inhibited | –
2 | Fc1ccc(Nc2nc(-c3ccccc3)cs2)cc1 [Compound 2, N-(4-fluorophenyl)-4-phenylthiazol-2-amine] | – | effect on NMDA-triggered LDH release (in words) (listed as compound 2): significantly inhibited
3 | Fc1ccc(Nc2nc(-c3cccnc3)cs2)cc1 [Compound 3, N-(4-fluorophenyl)-4-(pyridin-3-yl)thiazol-2-amine] | significantly inhibited | –
4 | Brc1ccc(Nc2nc(-c3cccnc3)cs2)cc1 [Compound 4, N-(4-bromophenyl)-4-(pyridin-3-yl)thiazol-2-amine] | – | effect on NMDA-triggered LDH release (in words) (listed as compound 4): significantly inhibited
5 | Fc1ccc(Nc2nc(-c3ccccc3)cs2)c(F)c1 [Compound 5, N-(2,4-difluorophenyl)-4-phenylthiazol-2-amine] | – | effect on NMDA-triggered LDH release (in words) (listed as compound 5): significantly inhibited
6 | Fc1ccc(Nc2nc(-c3cccnc3)cs2)c(F)c1 [Compound 6, N-(2,4-difluorophenyl)-4-(pyridin-3-yl)thiazol-2-amine] | significantly inhibited | –
7 | c1ccc(CCNc2nc(-c3cccnc3)cs2)cc1 [Compound 7, N-phenethyl-4-(pyridin-3-yl)thiazol-2-amine] | significantly inhibited | –
8 | Fc1ccc(Nc2nc(-c3ccc(F)cc3)cs2)cc1 [Compound 8, N,4-bis(4-fluorophenyl)thiazol-2-amine] | – | effect on NMDA-triggered LDH release (in words) (listed as compound 8): significantly inhibited
